Results from PubChem BioAssay AID2685 (National Center for Advancing Translational Sciences (NCATS), 2010).
The list shows a part of the results. Further columns of the screen follow, without active or inactive calls. Most of these compounds were active or inconclusive in the main read-out, so they are no random draw. The note in brackets gives the kind of curve behind each potency; many fits are weak.

Experiment: qHTS Assay for Lipid Storage Modulators in Drosophila S3 Cells;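 as to cell number change: cells counted by Cell Tracker Red CMTPX staining in the red channel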
Conditions: BODIPY lipid droplet fluorescence, 18-24 h; for cell number change: measured here: cell count max response, cells fed with added oleic acid
Outline: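 Laser-scanning cytometry quantifies lipid droplet accumulation (500–530 nm total intensity; droplet/cell object ratio) in oleic acid-fed (400 uM added) Drosophila S3 cells treated with a concentration series. 20 uM Triacsin C defined 100% inhibition.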

[1] = measured here: cell number channel AC50, cells fed with added oleic acid
[2] = measured here: lipid fluorescence (Fed channel) AC50, cells fed with added oleic acid

CC(C)(C)OC(=O)N1CCC(c2c(C(=O)O)cnn2-c2ccc(Cl)cc2)CC1
cell number change: 24.1% | AC50 [1]: 2.06 µM [rising, full curve, poor fit]

Cc1cc(C(=O)COC(=O)c2ccc(CO)cc2)c(C)n1CC1COc2ccccc2O1 (configuration not stated)
cell number change: 1% | AC50 [2]: 0.00461 µM [rising, full curve, poor fit]

CN(C)/N=C1\CCS(=O)(=O)c2sccc21
cell number change: -23% | AC50 [2]: 29.1 µM [falling, single point]

COc1ccc(S(=O)(=O)N2CCC(C(=O)N3CCc4ccccc4C3)CC2)cc1C
cell number change: -3.62% | AC50 [1]: 0.00461 µM [falling, full curve, poor fit]

O=C1c2ccccc2C(=O)N1OS(=O)(=O)c1ccccc1
cell number change: -32.8% | AC50 [1]: 8.2 µM [falling, partial curve] | AC50 [2]: 25.9 µM [falling, partial curve]

Cc1cccc(N2C(=O)C3CC3C2=O)c1 (configuration not stated)
cell number change: 29.5% | AC50 [2]: 10.3 µM [rising, partial curve]

COc1ccc(C(=O)NCCc2cn3ccccc3n2)cc1
cell number change: 12.9% | AC50 [1]: 1.64 µM [rising, partial curve] | AC50 [2]: 4.61 µM [rising, partial curve]

Cc1c(NC(=O)c2cc3ccccc3c(=O)s2)c(=O)n(-c2ccccc2)n1C
cell number change: -13.1% | AC50 [2]: 9.2 µM [rising, single point]

O=C(Cc1ccc2c(c1)OCCO2)Nc1cc(Cl)ccc1N1CCOCC1
AC50 [1]: 2.06 µM [rising, partial curve]

Cc1ccc(S(=O)(=O)N(C)CC(=O)NCCCn2ccnc2)cc1
cell number change: 20.8%

O=C(OCc1c(-c2ccccc2)ncc2ccccc12)c1cccc(Br)c1
cell number change: -35.4% | AC50 [1]: 29.1 µM [falling, single point]

CCOC(=O)N1CCN(C(=O)CSc2nnc(-c3cc(OC)cc(OC)c3)o2)CC1
cell number change: 58.4% | AC50 [1]: 4.11 µM [rising, full curve, poor fit] | AC50 [2]: 6.51 µM [rising, partial curve]

CC(C)(C)c1cnnn1-c1ccc(/C=N/Nc2ccc([N+](=O)[O-])cc2)cc1
cell number change: -12.2% | AC50 [2]: 29.1 µM [falling, single point]

CC1CCCN(S(=O)(=O)c2cccc(-c3cn4cccnc4n3)c2)C1 (configuration not stated)
cell number change: -9.48% | AC50 [2]: 0.326 µM [falling, full curve, poor fit]

O=C(Nc1ccc2nn(-c3ccccc3)nc2c1)c1cccs1
cell number change: -54.3% | AC50 [1]: 29.1 µM [falling, single point]

Cc1ccc(C(=O)NCCCNC(=O)c2ccc(Cl)cc2)cn1
cell number change: 20% | AC50 [2]: 6.51 µM [rising, single point]

COc1ccccc1OCCCC(=O)Nc1ccc([N+](=O)[O-])cc1Br
cell number change: 19% | AC50 [2]: 0.355 µM [rising, full curve, poor fit]

CC(C)(C)NCC(O)COc1ccccc1C(C)(C)C (configuration not stated)
cell number change: 2.38%

C=CCN(C(=O)c1csnn1)C(C(=O)NCc1ccccc1)c1c(F)cccc1Cl (configuration not stated)
cell number change: -52.4% | AC50 [1]: 11.6 µM [falling, partial curve, poor fit]

Nc1nnc(SCC(=O)N2CCCCC2)s1
cell number change: -4.86% | AC50 [2]: 0.116 µM [falling, full curve, poor fit]

Cn1cc(CN2CCC(Oc3ccc(C(=O)N4CCCCC4)cc3)CC2)cn1
cell number change: -15.3% | AC50 [1]: 0.0731 µM [rising, full curve, poor fit]

O=C(CSCc1cc(=O)n2nc(C3CC3)sc2n1)Nc1ccccc1Cl
cell number change: -4.25% | AC50 [2]: 0.82 µM [rising, single point]

COc1ccc(OC)c(NC(=O)c2ccc(OCC(=O)N3CCOCC3)c(OC)c2)c1
cell number change: 21.5% | AC50 [1]: 2.59 µM [rising, full curve, poor fit]

C[C@@]12C(=O)N(c3cccc(Br)c3)C(=O)N1[C@H](c1ccc(Cl)cc1)[C@@H]1C(=O)N(C3CCCCC3)C(=O)[C@@H]12
cell number change: 88.7% | AC50 [1]: 23.1 µM [rising, partial curve, poor fit]

COc1ccc([C@@H]2[C@@H]3C(=O)N(C(C)(C)C)C(=O)[C@@H]3[C@]3(C)C(=O)N(c4ccc(C)cc4)C(=O)N23)cc1
cell number change: 12.6% | AC50 [2]: 10.3 µM [falling, single point]

CCc1ccc(C(=O)COC(=O)CNC(=O)c2ccco2)cc1
cell number change: 2.17% | AC50 [2]: 29.1 µM [rising, single point]

COc1ccccc1C(=O)Nc1ccc(C)c(S(=O)(=O)N2CCCCC2)c1
cell number change: 79.8% | AC50 [1]: 16.4 µM [rising, partial curve]

CNS(=O)(=O)c1cccc(C(=O)OCC(=O)N2CC(C)OC(C)C2)c1 (configuration not stated)
cell number change: 36.5% | AC50 [1]: 14.6 µM [rising, partial curve, poor fit]

CCC(=O)N1CCN(c2ccc(Cl)cc2NC(=O)c2ccc([N+](=O)[O-])o2)CC1
AC50 [2]: 5.17 µM [falling, full curve]

FC(F)(F)c1nnc2ccc(-n3ccnc3)nn12
cell number change: -3.31% | AC50 [2]: 20.6 µM [falling, single point]

COc1cc(/C=c2\sc3n(c2=O)CCCN=3)ccc1O
cell number change: -21.7% | AC50 [2]: 29.1 µM [falling, single point]

Cc1cc(NC(=O)CSc2nnc(COc3cccc(C)c3C)n2C)no1
cell number change: 2.33% | AC50 [2]: 20.6 µM [falling, partial curve, poor fit]

O=C(COc1ccc2ccccc2c1)Nc1ccncc1
cell number change: -17.1% | AC50 [2]: 32.6 µM [falling, single point]

COc1cccc(/C=N/n2c(C)nc3ccccc32)c1OC
AC50 [1]: 0.731 µM [rising, single point]

Cc1c(C(=O)N2CCC(N3CCSCC3)CC2)oc2c(F)cccc12
cell number change: 43.6% | AC50 [1]: 10.3 µM [rising, partial curve, poor fit]

CCOC(=O)c1sc(-c2ccccc2)cc1NC(=O)Nc1ccccc1
cell number change: -13.8% | AC50 [2]: 18.4 µM [falling, single point]

O=S(=O)(/N=C(/Sc1ccccc1)c1ccccc1)c1ccccc1
AC50 [2]: 6.51 µM [falling, single point]

CC1Oc2ccccc2C=C1/C=C1/SC(N2CCOCC2)=NC1=O (configuration not stated)
cell number change: 12.5%
